Measured values published in article PMC10363768.
No constants are given. Whether binding was seen depends on the method and setting. A result given as binding can be weak or reduced; the word gives no strength. For some assays here: Where a sequence is shown, tags or fusion partners need not be part of it. For some assays here: In cells and extracts the contact can be indirect. Blank lines part the entries; values can stand above or below the binder they belong to.

Key:
[1] = biological target: OsOTUB1.1-cYFP (rice); experiment: split reporter; BiFC; nYFP and cYFP fusions co-expressed in N. benthamiana leaves by Agrobacterium infiltration, 2 days, confocal microscopy (514 nm laser)
[2] = biological target: OsUbc13-cYFP (rice); experiment: as above
[3] = biological target: OsUbc13-eGFP (rice); experiment: co-IP; total protein of infiltrated N. benthamiana leaves; anti-GFP agarose beads, 2 h at 4 °C; 50 mM Tris-HCl pH 7.5, 100 mM NaCl, 1 mM EDTA; immunoblot with anti-GFP and anti-OsSnRK1a
[4] = biological target: OsUbc13-nYFP (rice); experiment: split reporter; BiFC; nYFP and cYFP fusions co-expressed in N. benthamiana leaves by Agrobacterium infiltration, 2 days, confocal microscopy (514 nm laser)
[5] = biological target: OsOTUB1.1-nYFP (rice); experiment: as above
[6] = biological target: cLuc-OsOTUB1.1 (rice); experiment: split reporter; firefly split-luciferase complementation imaging (LCI); nLuc and cLuc fusions co-expressed in N. benthamiana leaves by Agrobacterium infiltration, 2 days, 1 mM luciferin, cooled CCD imaging
[7] = biological target: cLuc-OsUbc13 (rice); experiment: as above
[8] = biological target: 8 × His-OsUbc13-GFP (rice) (UniProt Q8W0I1); experiment: pull-down; cell-free expressed and purified fusion proteins mixed (100 μL each), 4 °C for 4 h, then His-tag magnetic beads 1 h at 4 °C, six washes; immunoblot with anti-His and anti-Flag; both purified

binding [1]: binds
binding [2]: binds
B1: OsSnRK1a-nYFP (enzyme, UniProt Q852Q2 1-505)
chain: MEGAGRDGNPLGGYRIGKTLGIGSFGKVKIAEHILTGHKVAIKILNRRKIKSMEMEEKVKREIKILRLFMHPHIIRLYEVIDTPADIYVVMEYVKSGELFDYIVEKGRLQEEEARRFFQQIISGVEYCHRNMVVHRDLKPENLLLDSKCNVKIADFGLSNVMRDGHFLKTSCGSPNYAAPEVISGKLYAGPEVDVWSCGVILYALLCGTLPFDDENIPNLFKKIKGGIYTLPSHLSPLARDLIPRMLVVDPMKRITIREIREHQWFTVGLPRYLAVPPPDTAQQVKKLDDETLNDVINMGFDKNQLIESLHKRLQNEATVAYYLLLDNRLRTTSGYLGAEFHESMESSLAQVTPAETPNSATDHRQHGHMESPGFGLRHHFAADRKWALGLQSRAHPREIITEVLKALQELNVCWKKIGHYNMKCRWSPSFPSHESMMHNNHGFGAESAIIETDDSEKSTHTVKFEIQLYKTRDEKYLLDLQRVSGPQLLFLDLCSAFLTQLRVL

binding [8]: binds
B5: 3 × Flag-OsSnRK1a-GFP (enzyme, UniProt Q852Q2 1-505)
chain: MEGAGRDGNPLGGYRIGKTLGIGSFGKVKIAEHILTGHKVAIKILNRRKIKSMEMEEKVKREIKILRLFMHPHIIRLYEVIDTPADIYVVMEYVKSGELFDYIVEKGRLQEEEARRFFQQIISGVEYCHRNMVVHRDLKPENLLLDSKCNVKIADFGLSNVMRDGHFLKTSCGSPNYAAPEVISGKLYAGPEVDVWSCGVILYALLCGTLPFDDENIPNLFKKIKGGIYTLPSHLSPLARDLIPRMLVVDPMKRITIREIREHQWFTVGLPRYLAVPPPDTAQQVKKLDDETLNDVINMGFDKNQLIESLHKRLQNEATVAYYLLLDNRLRTTSGYLGAEFHESMESSLAQVTPAETPNSATDHRQHGHMESPGFGLRHHFAADRKWALGLQSRAHPREIITEVLKALQELNVCWKKIGHYNMKCRWSPSFPSHESMMHNNHGFGAESAIIETDDSEKSTHTVKFEIQLYKTRDEKYLLDLQRVSGPQLLFLDLCSAFLTQLRVL

The next lines start with the binder.

B2: OsSnRK1a (enzyme, UniProt Q852Q2 1-505)
chain: MEGAGRDGNPLGGYRIGKTLGIGSFGKVKIAEHILTGHKVAIKILNRRKIKSMEMEEKVKREIKILRLFMHPHIIRLYEVIDTPADIYVVMEYVKSGELFDYIVEKGRLQEEEARRFFQQIISGVEYCHRNMVVHRDLKPENLLLDSKCNVKIADFGLSNVMRDGHFLKTSCGSPNYAAPEVISGKLYAGPEVDVWSCGVILYALLCGTLPFDDENIPNLFKKIKGGIYTLPSHLSPLARDLIPRMLVVDPMKRITIREIREHQWFTVGLPRYLAVPPPDTAQQVKKLDDETLNDVINMGFDKNQLIESLHKRLQNEATVAYYLLLDNRLRTTSGYLGAEFHESMESSLAQVTPAETPNSATDHRQHGHMESPGFGLRHHFAADRKWALGLQSRAHPREIITEVLKALQELNVCWKKIGHYNMKCRWSPSFPSHESMMHNNHGFGAESAIIETDDSEKSTHTVKFEIQLYKTRDEKYLLDLQRVSGPQLLFLDLCSAFLTQLRVL
binding [3]: binds

B3: OsSnRK1a-cYFP (enzyme, UniProt Q852Q2 1-505)
chain: MEGAGRDGNPLGGYRIGKTLGIGSFGKVKIAEHILTGHKVAIKILNRRKIKSMEMEEKVKREIKILRLFMHPHIIRLYEVIDTPADIYVVMEYVKSGELFDYIVEKGRLQEEEARRFFQQIISGVEYCHRNMVVHRDLKPENLLLDSKCNVKIADFGLSNVMRDGHFLKTSCGSPNYAAPEVISGKLYAGPEVDVWSCGVILYALLCGTLPFDDENIPNLFKKIKGGIYTLPSHLSPLARDLIPRMLVVDPMKRITIREIREHQWFTVGLPRYLAVPPPDTAQQVKKLDDETLNDVINMGFDKNQLIESLHKRLQNEATVAYYLLLDNRLRTTSGYLGAEFHESMESSLAQVTPAETPNSATDHRQHGHMESPGFGLRHHFAADRKWALGLQSRAHPREIITEVLKALQELNVCWKKIGHYNMKCRWSPSFPSHESMMHNNHGFGAESAIIETDDSEKSTHTVKFEIQLYKTRDEKYLLDLQRVSGPQLLFLDLCSAFLTQLRVL
binding [4]: binds
binding [5]: binds

B4: OsSnRK1a-nLuc (enzyme, UniProt Q852Q2 1-505)
chain: MEGAGRDGNPLGGYRIGKTLGIGSFGKVKIAEHILTGHKVAIKILNRRKIKSMEMEEKVKREIKILRLFMHPHIIRLYEVIDTPADIYVVMEYVKSGELFDYIVEKGRLQEEEARRFFQQIISGVEYCHRNMVVHRDLKPENLLLDSKCNVKIADFGLSNVMRDGHFLKTSCGSPNYAAPEVISGKLYAGPEVDVWSCGVILYALLCGTLPFDDENIPNLFKKIKGGIYTLPSHLSPLARDLIPRMLVVDPMKRITIREIREHQWFTVGLPRYLAVPPPDTAQQVKKLDDETLNDVINMGFDKNQLIESLHKRLQNEATVAYYLLLDNRLRTTSGYLGAEFHESMESSLAQVTPAETPNSATDHRQHGHMESPGFGLRHHFAADRKWALGLQSRAHPREIITEVLKALQELNVCWKKIGHYNMKCRWSPSFPSHESMMHNNHGFGAESAIIETDDSEKSTHTVKFEIQLYKTRDEKYLLDLQRVSGPQLLFLDLCSAFLTQLRVL
binding [6]: binds
binding [7]: binds
